Laboratory results: PubChem BioAssay AID485314 (National Center for Advancing Translational Sciences (NCATS), 2010)
In all, about 340,000 compounds went through this assay and about 4,500 (1.3%) were called active. Inconclusive means that the source gave no clear call. Such entries were picked first, then a sample of the others. Calls come from the whole dose curve; as a rule, active = well fitted inhibition curve with a large enough effect; inconclusive = small, poorly fitted or top-dose-only effect, or another doubt; inactive = no such curve, though single readings can be large or run the other way. A potency beside an inconclusive call is a rough fit, not a confirmed value.

target: DNA polymerase beta (Homo sapiens) (UniProt P06746); assay: qHTS Assay for Inhibitors of DNA Polymerase Beta; settings: Pol beta primer extension/strand displacement, fluorescence kinetic; activity change, negative = inhibition: at 114 µM (top of the series)
Procedure, shortened: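 Reaction started by 50 nM substrate onto compound-treated Pol beta (10 nM, 15 min preincubation, room temperature); plates read at 0 min and 10 min. Normalized concentration-effect data fitted by four-parameter Hill equation.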
% is set by controls: 0 for no effect and ±100 for the full control effect; potency is the fitted concentration of half-maximal effect.

| SMILES | Potency | activity change, negative = inhibition |
| --- | --- | --- |
| COc1ccc(CNCc2cccn2C)cc1 | inconclusive: 17.8 µM [inhibitor, partial curve] | – |
| NC(=O)c1ccc(Nc2nnc(-c3ccc(O)cc3)c3ccccc23)cc1 | inconclusive: 17.8 µM [inhibitor, full curve] | – |
| COc1ccc(N2CCN(C(=O)Cn3c(=O)c4cccn4c4cccnc43)CC2)cc1 | inconclusive: 31.6 µM [inhibitor, single point] | – |
| CC1=NN(c2ccccc2)C(=O)/C1=C/c1c(O)n(-c2ccc(F)c(Cl)c2)[nH]c1=O | inconclusive: 17.8 µM [inhibitor, full curve] | – |
| CC(C)CN(CC(C)C)C1=N/C(=C\c2ccco2)C(=O)N1c1ccccc1 | active: 28.2 µM | – |
| Cc1ccc(S(=O)(=O)c2cn(CC(=O)Nc3ccc(F)cc3)c3cc4c(cc3c2=O)OCO4)cc1 | inconclusive: 39.8 µM [inhibitor, single point] | – |
| CC(Oc1ccc2c(c1)c1ccnc3c4ccccc4c(=O)n2c13)C(=O)NCCN1CCOCC1 (centres undefined) | inconclusive: 100 µM [inhibitor, single point] | – |
| CSc1ccccc1C(=O)NC(C)c1ccc(-n2ccnc2)cc1 (centres undefined) | inactive | – |
| CC1CCCCC1NC(=O)CSc1nc2ccccc2[nH]1 (centres undefined) | inactive | – |
| CCCOc1ccc(NC(=O)CC2C(=O)N(c3ccc(C)cc3)C(=O)N2C2CCCC2)cc1 (centres undefined) | inconclusive: 63.1 µM [inhibitor, single point] | – |
| CCn1c(SCC(=O)Nc2cc(C)nn2-c2ccccc2)nnc1-c1cccs1 | inconclusive: 89.1 µM [inhibitor, single point] | – |
| O=C(CSc1nc(-c2ccccc2)nc2c1Cc1ccccc1O2)Nc1ccc(C(=O)O)cc1 | active: 2 µM | – |
| CCOc1ccc(C(=O)c2cn(Cc3ccccc3)c3c(F)cc(F)cc3c2=O)cc1 | inactive | – |
| Cc1ccc(Nc2nc3ccccc3[nH]2)nc1 | inconclusive: 100 µM [inhibitor, single point] | – |
| Cc1onc(-c2c(Cl)cccc2Cl)c1C(=O)N=C(N)N1CC(C)OC(C)C1 (centres undefined) | inconclusive: 63.1 µM [inhibitor, single point] | – |
| COC(=O)c1c(C)oc2ccc(N(C(=O)Oc3ccccc3)S(=O)(=O)c3ccc(C(C)(C)C)cc3)cc12 | – | inconclusive: -39.2% [inhibitor] |
| Nc1ccc(-c2nc3nc(N)nc(N)c3nc2-c2ccc(N)cc2)cc1 | inactive | – |
| Cc1ccc(/C=C/C(=O)O)cc1S(=O)(=O)NCc1ccco1 | inconclusive: 39.8 µM [inhibitor, single point] | – |
| O=C(O)c1ccc(OC2CSC2)cc1 | inactive | – |
| Fc1ccc(-c2cc(C(F)(F)F)nc(NCc3ccccc3)n2)cc1 | inactive | – |
| O=C(Nc1ccccc1C(=O)NCCCN1CCOCC1)c1ccccc1 | inconclusive: 89.1 µM [inhibitor, single point] | – |
| Cc1ccc(-n2nc3ccc(NC(=O)Cc4ccc(Cl)cc4)cc3n2)cc1 | – | inconclusive: -84.8% [inhibitor] |
| COc1ccccc1-c1nnc2sc(COc3ccc(Cl)cc3Cl)nn12 | active: 56.2 µM | – |

Entries from the list above that contain an aryl methoxy group (three):

| SMILES | Potency | activity change, negative = inhibition |
| --- | --- | --- |
| COc1ccc(CNCc2cccn2C)cc1 | inconclusive: 17.8 µM [inhibitor, partial curve] | – |
| COc1ccc(N2CCN(C(=O)Cn3c(=O)c4cccn4c4cccnc43)CC2)cc1 | inconclusive: 31.6 µM [inhibitor, single point] | – |
| COc1ccccc1-c1nnc2sc(COc3ccc(Cl)cc3Cl)nn12 | active: 56.2 µM | – |

Continuation:

| SMILES | Potency | activity change, negative = inhibition |
| --- | --- | --- |
| Cc1cccc(C)c1NC(=O)CSCc1cccc(CSCC(=O)Nc2c(C)cccc2C)n1 | inconclusive: 7.94 µM [inhibitor, partial curve, poor fit] | – |
| CCC(=O)Nc1ccc(C(=O)NNC(=O)C(c2ccccc2)c2ccccc2)cc1 | active: 44.7 µM | – |
| CCCC(=O)C1=C(c2cccc(OC)c2)N(C(=O)CCC)n2c(C)nnc2S1 | inactive | – |
| COc1ccc(C(=O)Nc2ccccc2-c2nc(-c3ccc(OC)cc3)no2)cc1 | inactive | – |
| O=C(O)CCSc1nc2ccccc2s1 | inconclusive: 89.1 µM [inhibitor, single point] | – |
| COc1ccc(CCN2CC(C(=O)NCCc3ccccc3)CC2=O)cc1OC (centres undefined) | inconclusive: 89.1 µM [inhibitor, single point] | – |
| CCN(CC)c1ccc(C(=O)OCc2cc(=O)oc3cc(O)ccc23)cc1 | inconclusive: 56.2 µM [inhibitor, single point] | – |
| COc1ccc(-c2nc3cc(C(C)C)ccc3o2)cc1NC(=O)c1ccc(C)c(Cl)c1 | inactive | – |
| Cn1ccc2c(OCC(=O)Nc3ccc([N+](=O)[O-])cc3)cccc2c1=O | inconclusive: 20 µM [inhibitor, partial curve, poor fit] | – |
| O=C1c2cccc3cccc(c23)C(=O)N1c1ccc2ncccc2c1 | active: 31.6 µM | – |
| CC(OC(=O)c1oc2ccccc2c1CSC1CCCCC1)C(=O)NC(N)=O (centres undefined) | inactive | – |
| CNC(=O)c1c(O)c2cccc3c2n(c1=O)CCC3 | inactive | – |
| O=C(Nc1cc(=O)[nH]c2ncnn12)c1ccco1 | inconclusive: 11.2 µM [inhibitor, full curve, poor fit] | – |
| CC(=O)OCCNc1cc(SCc2ccco2)c2nonc2c1[N+](=O)[O-] | inconclusive: 22.4 µM [inhibitor, full curve] | – |
| CC(C)(C)C(=O)Nc1cccc(OC(F)(F)C(F)Cl)c1 (centres undefined) | inconclusive: 100 µM [inhibitor, single point] | – |
| Cc1ccc(S(=O)(=O)NC(C(=O)O)c2ccccc2)cc1 (centres undefined) | inconclusive: 1 µM [inhibitor, full curve, poor fit] | – |
| O=C(CN1c2ccccc2Sc2ccccc21)NNC(=S)Nc1ccc(Cl)cc1 | inactive | – |
| N#C/C(=C\c1ccc(OC(=O)c2cccs2)cc1)c1nc2ccccc2[nH]1 | active: 35.5 µM | – |
| CCn1ccc2cc(S(=O)(=O)N3CCCN(C(=O)NCC(=O)OC)CC3)ccc21 | inactive | – |
| CC(=O)Nc1scc(C)c1-c1nc2ccccc2s1 | inconclusive: 89.1 µM [inhibitor, single point] | – |
| Cc1cccc(S(=O)(=O)c2c(N)n(/N=C/c3ccco3)c3nc4ccccc4nc23)c1 | inconclusive: 63.1 µM [inhibitor, partial curve, poor fit] | – |
| CC(C)c1ccc(NC(=O)c2ccc3c(c2)C(=O)N(Cc2cccnc2)C3=O)cc1 | inconclusive: 70.8 µM [inhibitor, single point] | – |
| Cc1ccccc1NC(=O)Cn1c(=O)n(CCC(=O)NCc2ccc3c(c2)OCO3)c(=O)c2sccc21 | active: 50.1 µM | – |

| SMILES | Potency | activity change, negative = inhibition |
| --- | --- | --- |
| CCCc1nc(SCC(=O)c2ccc(OC)cc2)c2ccccc2n1 | inconclusive: 89.1 µM [inhibitor, single point] | – |
| O=C1CN(C(=O)c2ccc(S(=O)(=O)N3CCCCC3)cc2)C(c2ccc(F)cc2)c2cc(Br)ccc2N1 (centres undefined) | inactive | – |
| N#Cc1c(/N=C/c2cccnc2)sc2c1CCCC2 | inconclusive: 70.8 µM [inhibitor, single point] | – |
| COc1ccccc1NC(=O)Cn1nnc(C(=O)NCCc2ccccc2)c1N | inconclusive: 28.2 µM [inhibitor, full curve, poor fit] | – |
| Cc1c(C(=O)N2CCOCC2)c(S(=O)(=O)Nc2ccc(C(C)C)cc2)c(C)n1C | inactive | – |
| CCOc1ccccc1NC(=O)C(C)n1nnc2sc3c(c2c1=O)CCCC3 (centres undefined) | inconclusive: 22.4 µM [inhibitor, single point] | – |
| CCOc1c2c(nc3ccc(Cl)cc13)CCC2 | inconclusive: 8.91 µM [inhibitor, partial curve] | – |
| COc1ccc(CN(N=O)C2CC(=O)N(c3ccc(OC)cc3)C2=O)cc1 (centres undefined) | inconclusive: 89.1 µM [inhibitor, single point] | – |
| Cc1ccc(CCNC(=O)c2ccc(Cn3c(=O)c4cccn4c4cccnc43)cc2)cc1 | inconclusive: 79.4 µM [inhibitor, partial curve] | – |
| COc1cc(OC)c(NC(=O)Nc2sc3nc4n(c(=O)c3c2C)CCC(C)CC4)cc1Cl (centres undefined) | inactive | – |
| COc1ccc(N=C(c2ccccc2)c2c(C)[nH]n(-c3ccccc3)c2=O)c(OC)c1 | – | inconclusive: -31.2% [inhibitor] |
| COC(=O)C1=C(C)NC(=O)/C1=C\N(C)C | inconclusive: 20 µM [inhibitor, single point] | – |
| COc1ccccc1C(=O)N/C(=C/c1ccccc1)C(=O)Nc1ccc(C(=O)O)cc1 | inconclusive: 0.251 µM [inhibitor, full curve, poor fit] | – |
| O=C(COC(=O)CC1CCCC1)Nc1cc2c(cc1Cl)C(=O)c1ccccc1C2=O | active: 39.8 µM | – |
| O=C1c2ccccc2C(=O)c2c1ccc(C(=O)N1CCCCC1)c2NCCO | inconclusive: 39.8 µM [inhibitor, single point] | – |
| COc1ccc(NC(=O)c2cc(S(=O)(=O)Nc3ccc(OC)cc3)cs2)cc1 | inconclusive: 70.8 µM [inhibitor, single point] | – |
| CCOc1ccc2nc(SCC(=O)Nc3ccc4c(c3)OCCO4)[nH]c2c1 | inconclusive: 12.6 µM [inhibitor, partial curve] | – |
| CNc1ccccc1C(C)(C)c1cc(-c2cccc(OC)c2)no1 | inconclusive: 63.1 µM [inhibitor, single point] | – |
| CCOC(=O)N1CCN(S(=O)(=O)c2ccc(Cl)cc2)CC1 | inconclusive: 35.5 µM [inhibitor, single point] | – |
| Cc1ccc(-c2ccc(SCC(=O)Nc3ccc4c(c3)OCCO4)nn2)cc1 | inconclusive: 14.1 µM [inhibitor, full curve] | – |
| CC1CCc2cc(F)ccc2N1C(=O)CSc1nnc2c3ccccc3n(C)c2n1 (centres undefined) | inconclusive: 1 µM [inhibitor, full curve] | – |
| O=C(CCS(=O)(=O)Cc1ccccc1)N1CCN(Cc2ccccc2)CC1 | inconclusive: 1.78 µM [inhibitor, full curve, poor fit] | – |
| O=C(NCc1ccccc1)c1cccc(COc2ccc(Cl)cc2)c1 | inconclusive: 0.224 µM [inhibitor, full curve, poor fit] | – |
